Test results published in the supplement of paper PMC6445147.
Single values of this data set are uncertain.

B1: human tRNA-Pro; a variant is named by its letters at N, in order (parent)
chain: GGCTCGTTGGTCTAGNGGTATGATTCTCGCTTAGGGTGCGAGAGGTCCCGGGTTCNNATCCCGGACGAGCCC

How the values were obtained:
[1] = variants of: B1; assay: tRNA Pol-III promoter activity, log2 (circRNA frequency / plasmid DNA frequency) (log2 ratio); higher = stronger promoter activity; settings: HEK293T; construct: no Pol-II promoter ((-)CMV library)
[2] = variants of: B1; assay: tRNA 3' processing efficiency (processed reads / all reads, maximum-likelihood estimate) (fraction); higher = more efficient 3' processing; settings: HEK293T; construct: no Pol-II promoter ((-)CMV library)
[3] = variants of: B1; assay: tRNA 5' processing efficiency (processed reads / all reads, maximum-likelihood estimate) (fraction); higher = more efficient 5' processing; settings: HEK293T; construct: CMV Pol-II promoter ((+)CMV library, decapped)

Row | Variant | tRNA Pol-III promoter activity (log2) [1] | tRNA 3' processing efficiency [2] | tRNA 5' processing efficiency [3]
1 | GAA G15C G18T A20G A58T | 5.53 | 0.33 | –
2 | GAA G18A A58G | -0.585 | 0.18 | 0.25
3 | GAA G18A A58T | -1.18 | 0.4 | –
4 | GAA G18A A58C | 0.172 | 0.49 | 0.5
5 | GAA G17A T53A | 0.606 | 0.43 | –
6 | GAA G15T T19C T53A | 3.93 | 0.33 | –
7 | GAA G15T T53A | 1.32 | 0.52 | 0.25
8 | GAA G18A A20G | -1.45 | 0.33 | 0.17
9 | GAA G18A A20T | 1.07 | 0.29 | 0.4
10 | GAA G18A T19C A58T | 3.19 | 0.4 | –
11 | TAA G15C T54A | 3.45 | 0.25 | –
12 | GAA G17A A20G T53A | 3.67 | 0.2 | –
13 | GAA G15T G17A T53A | 4.03 | 0.33 | –
14 | GAA G18A T19A T59G | 4.94 | 0.25 | –
15 | GAA G17C T53A | 0.178 | 0.39 | –
16 | GAA G18A T53A | 1.17 | 0.22 | 0.5
17 | GAA G9T G15T T54A C55T | 5.26 | 0.4 | –
18 | GAA G15A T54A | 1.02 | 0.3 | –
19 | GAA G17T T19C T59G | 5.26 | 0.2 | –
20 | GAA G15A T19G A58G | 4.8 | 0.18 | –
21 | GAA G17T G18C T59A | 4.34 | 0.25 | –
22 | TAA G9T T54A | 4.19 | 0.75 | –
23 | GAA G15T G18C A20T A58T | 6.53 | 0.83 | –

Row | Variant | tRNA Pol-III promoter activity (log2) [1] | tRNA 3' processing efficiency [2] | tRNA 5' processing efficiency [3]
24 | GAA G17T A20G A58T | 3.51 | 0.33 | –
25 | AAA G9T G17T T53A | 6.74 | 0.57 | –
26 | GAA G17C A20C | 0.227 | 0.25 | –
27 | GAA G15A A58C T59A | 4.08 | 0.42 | –
28 | GAA G9T G15T A58C | 3.67 | 0.4 | –
29 | AAA G9T C55G | 3.04 | 0.5 | –
30 | GAA G17T T53G | 0.0185 | 0.27 | –
31 | GAA G17T T53A | 0.742 | 0.37 | –
32 | GAA G15T T19G T59A | 3.72 | 0.5 | –
33 | GAA G17A T59G | -0.0718 | 0.25 | –
34 | GAA G17A T59A | 0.924 | 0.2 | –
35 | GAA G15C G17T C55G | 4.26 | 0.29 | –
36 | GAA G15A C55T | -0.218 | 0.62 | –
37 | GAA G15A C55G | -0.408 | 0.4 | –
38 | TAA G15A T53G | 2.55 | 0.4 | –
39 | TAA G15A T53A | 8.07 | 0.06 | –
40 | CAA G15C A20T A58T | 7.73 | 0.23 | –
41 | GAA G17A T53A T59A | 5.94 | 0.25 | –
42 | AAA G15A T53A | 3.74 | 0.43 | –
43 | GAA G15T T54G | -0.302 | 0.4 | 0.22
44 | AAA G15A C55T | 1.4 | 0.25 | –
45 | GAA G15C G17C T53A | 2.27 | 0.5 | 0.33
46 | GAA G18A A20T T53A | 4.48 | 0.15 | –

Row | Variant | tRNA Pol-III promoter activity (log2) [1] | tRNA 3' processing efficiency [2] | tRNA 5' processing efficiency [3]
47 | CAA G15C T53A A58T | 7.94 | 0.39 | –
48 | GAA G15A G17C A20G | 3.57 | 0.62 | –
49 | CAA G15C T19G | 5.34 | 0.04 | –
50 | TAA G15T A58G T59G | 4.68 | 0.4 | –
51 | GAA G15A G17T T53A | 3.3 | 0.17 | –
52 | GAA G17T T19A T53A A58G | 4.68 | 0.2 | –
53 | GAA G15C C55T | -0.394 | 0.4 | –
54 | AAA G15A A58T | 3.36 | 0.33 | –
55 | GAA G15A G18A T19C T53A | 3.62 | 0.33 | –
56 | AAA G17T A20G | 1.73 | 0.2 | –
57 | CAA G17T T53A | 1.81 | 0.5 | –
58 | CAA G15T T53A | 4.58 | 0.45 | –
59 | GAA G15T A20G T53A A58T | 3.93 | 0.25 | –
60 | GAA G17T A58C T59A | 2.13 | 0.25 | –
61 | GAA G15A G17A A20T T59G | 3.65 | 0.33 | –
62 | AAA G17A A58T | 2.71 | 0.25 | –
63 | GAA G15C A58C | 0.14 | 0.34 | –
64 | GAA G15C A58G | -0.382 | 0.33 | –
65 | GAA G15C A58T | 0.1 | 0.4 | –
66 | GAA G9T T59C | 2.99 | 0.37 | 0.29
67 | GAA G9T T59A | 0.779 | 0.18 | –
68 | GAA G9T T59G | 2.26 | 0.47 | –
69 | GAA G17C A58T | 0.258 | 0.6 | –

Row | Variant | tRNA Pol-III promoter activity (log2) [1] | tRNA 3' processing efficiency [2] | tRNA 5' processing efficiency [3]
70 | GAA G17C A58G | -0.484 | 0.25 | –
71 | GAA G18A A58G T59G | 7.19 | 0.18 | –
72 | GAA G15C T19C T59G | 3.68 | 0.4 | –
73 | GAA G17C A58T T59G | 3.26 | 0.4 | –
74 | TAA G15T T54A | 3.43 | 0.14 | –
75 | GAA G15C T59C | 1.95 | 0.57 | –
76 | GAA G15C T59G | 2.58 | 0.33 | –
77 | GAA G15C T59A | 2.64 | 0.72 | –
78 | GAA G18A A20G T53A | 3.03 | 0.25 | –
79 | GAA G15A G17C T19A | 4.15 | 0.85 | –
80 | GAA G17T A20T T59C | 5.86 | 0.38 | –
81 | GAA G17T A20T T59A | 3.36 | 0.25 | –
82 | GAA G15C A20C | 0.556 | 0.71 | –
83 | GAA G15C T19A | 0.104 | 0.5 | –
84 | TAA G17A G18C T53C C55T | 3.93 | 0.25 | –
85 | GAA G15C T53A A58T | 5.4 | 0.36 | –
86 | GAA G15C | -2.04 | 0.29 | –
87 | GAA G15T | -3.6 | 0.59 | 0.2
88 | GAA G15A | -4.13 | 0.48 | 0.17
89 | GAA G15T T19G T53G | 2.92 | 0.5 | –
90 | GAA G17T T19C T53A | 3.5 | 0.67 | –
91 | TAA G15A A58G | 2.19 | 0.5 | –
92 | GAA G15A G17C T53A T59A | 5.62 | 0.67 | –

As entered above:
Value of GAA G15C G17C T53A under tRNA Pol-III promoter activity (log2) [1]: 2.27
Value of AAA G15A C55T under tRNA Pol-III promoter activity (log2) [1]: 1.4
Value of GAA G15C A58G under tRNA 3' processing efficiency [2]: 0.33

Continued.

Row | Variant | tRNA Pol-III promoter activity (log2) [1] | tRNA 3' processing efficiency [2] | tRNA 5' processing efficiency [3]
93 | GAA G9T T19A A58T | 2.12 | 0.25 | –
94 | GAA G15C A20T A58C | 5.62 | 0.33 | –
95 | CAA G18A A20T T59G | 5.4 | 0.06 | –
96 | GAA G15T C55T T59G | 4.34 | 0.13 | –
97 | GAA G15T C55T T59C | 3.36 | 0.4 | –
98 | GAA G18A A20T T59G | 0.928 | 0.67 | –
99 | GAA G15A T53A T54A | 2.94 | 0.25 | –
100 | GAA G15T G18A A33G C55A | 3.61 | 0.5 | –
101 | GAA G17A T19C A58T | 2.93 | 0.25 | –
102 | GAA G15C A20T T53A | 2.79 | 0.4 | –
103 | GAA G17C T19A A58T | 3.48 | 0.5 | –
104 | GAA G15T T19A A58G | 8.47 | 0.17 | –
105 | TAA G15C T59A | 2.12 | 0.25 | –
106 | GAA G15T G17A | -0.365 | 0.2 | –
107 | GAA G18A A20C C55T | 4.25 | 0.4 | –
108 | GAA G15A A20T T53A | 3.94 | 0.25 | –
109 | CAA G15T A20T C28T A58G | 5.67 | 0.1 | –
110 | GAA G15C T19A T54A | 2.94 | 0.33 | –
111 | GAA G17A A58T | -1.18 | 0.25 | 0.33
112 | GAA G17A A58C | 0.443 | 0.4 | –
